Laboratory results from paper PMC9240053.
These are yes or no findings as the source states them, for the method shown. In cells and extracts the contact can be indirect. Some entries that bind do so weakly or less than the wild type. Each block holds one molecule with its values, some of them ahead of it.

The chains behind the UniProt entries cited, without tags or fusion partners. Where a name states a change or a piece, a line headed by the entry shows the natural chain unless it says otherwise. A line that says so, or that is headed by a name, gives the form on record, which may keep a tag or linker. Residues count along the entry.
UniProt P35569: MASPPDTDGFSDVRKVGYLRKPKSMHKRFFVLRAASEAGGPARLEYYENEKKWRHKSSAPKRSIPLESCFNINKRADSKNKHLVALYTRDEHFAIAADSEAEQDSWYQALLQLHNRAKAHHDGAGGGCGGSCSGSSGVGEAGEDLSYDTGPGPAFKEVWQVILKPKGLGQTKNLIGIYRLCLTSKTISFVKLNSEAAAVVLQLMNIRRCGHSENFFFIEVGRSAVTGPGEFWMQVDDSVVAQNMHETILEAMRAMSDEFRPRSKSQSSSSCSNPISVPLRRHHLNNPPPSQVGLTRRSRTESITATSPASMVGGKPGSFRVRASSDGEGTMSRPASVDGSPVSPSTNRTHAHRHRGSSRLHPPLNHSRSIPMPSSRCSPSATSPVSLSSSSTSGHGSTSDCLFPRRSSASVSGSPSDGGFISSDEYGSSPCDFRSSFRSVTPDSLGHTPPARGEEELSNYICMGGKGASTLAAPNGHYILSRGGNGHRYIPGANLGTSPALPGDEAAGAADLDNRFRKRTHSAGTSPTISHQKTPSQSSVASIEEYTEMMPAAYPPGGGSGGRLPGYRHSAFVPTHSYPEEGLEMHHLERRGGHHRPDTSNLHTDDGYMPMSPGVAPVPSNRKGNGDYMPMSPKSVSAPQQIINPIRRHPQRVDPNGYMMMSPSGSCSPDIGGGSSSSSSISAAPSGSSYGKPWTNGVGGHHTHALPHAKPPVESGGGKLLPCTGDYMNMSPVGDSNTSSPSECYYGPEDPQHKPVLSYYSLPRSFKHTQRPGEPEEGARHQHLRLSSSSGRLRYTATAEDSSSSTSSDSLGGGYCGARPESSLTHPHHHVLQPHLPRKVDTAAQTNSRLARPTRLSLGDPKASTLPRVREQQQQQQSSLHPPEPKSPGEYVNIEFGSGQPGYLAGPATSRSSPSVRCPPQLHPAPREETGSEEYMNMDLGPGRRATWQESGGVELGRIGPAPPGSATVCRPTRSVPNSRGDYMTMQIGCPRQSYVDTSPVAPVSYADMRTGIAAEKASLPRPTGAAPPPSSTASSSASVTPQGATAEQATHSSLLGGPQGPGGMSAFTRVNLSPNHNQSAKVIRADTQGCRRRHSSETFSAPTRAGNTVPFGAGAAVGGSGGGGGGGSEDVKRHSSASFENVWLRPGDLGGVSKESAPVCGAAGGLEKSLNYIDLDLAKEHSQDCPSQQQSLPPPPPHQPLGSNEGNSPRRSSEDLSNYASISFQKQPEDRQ
FLAG-tagged mIRS-1 801–1000: residues 801-1000 of P35569
mIRS-1 ΔSAR (Δ300-600), FLAG-tagged and GFP-tagged copies (P35569, form named): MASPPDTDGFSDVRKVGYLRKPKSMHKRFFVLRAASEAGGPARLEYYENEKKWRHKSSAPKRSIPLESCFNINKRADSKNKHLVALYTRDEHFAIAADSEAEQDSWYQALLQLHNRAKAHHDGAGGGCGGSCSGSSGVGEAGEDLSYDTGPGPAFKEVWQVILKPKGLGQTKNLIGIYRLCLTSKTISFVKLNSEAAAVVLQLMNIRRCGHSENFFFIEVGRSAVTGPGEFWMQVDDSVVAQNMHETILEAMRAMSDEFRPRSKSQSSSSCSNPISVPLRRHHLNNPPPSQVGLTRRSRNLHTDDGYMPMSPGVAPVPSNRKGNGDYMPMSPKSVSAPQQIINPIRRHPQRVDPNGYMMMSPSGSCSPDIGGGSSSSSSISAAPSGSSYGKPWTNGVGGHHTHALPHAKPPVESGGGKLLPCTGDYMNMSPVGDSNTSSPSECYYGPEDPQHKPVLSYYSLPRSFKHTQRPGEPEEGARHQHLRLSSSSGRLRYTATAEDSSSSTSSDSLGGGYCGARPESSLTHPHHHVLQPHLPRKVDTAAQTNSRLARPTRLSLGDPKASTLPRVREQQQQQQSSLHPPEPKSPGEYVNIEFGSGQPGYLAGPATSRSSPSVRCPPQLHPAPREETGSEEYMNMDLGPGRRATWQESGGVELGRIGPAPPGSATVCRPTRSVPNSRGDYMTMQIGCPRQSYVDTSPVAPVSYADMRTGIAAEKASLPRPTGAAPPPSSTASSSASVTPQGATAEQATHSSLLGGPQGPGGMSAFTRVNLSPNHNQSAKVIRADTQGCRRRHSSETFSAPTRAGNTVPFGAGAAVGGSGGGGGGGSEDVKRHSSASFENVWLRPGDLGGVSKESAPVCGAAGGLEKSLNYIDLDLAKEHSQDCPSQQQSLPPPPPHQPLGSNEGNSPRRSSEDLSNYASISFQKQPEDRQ
FLAG-tagged mIRS-1 801–1000 G965R mutant (P35569, form named): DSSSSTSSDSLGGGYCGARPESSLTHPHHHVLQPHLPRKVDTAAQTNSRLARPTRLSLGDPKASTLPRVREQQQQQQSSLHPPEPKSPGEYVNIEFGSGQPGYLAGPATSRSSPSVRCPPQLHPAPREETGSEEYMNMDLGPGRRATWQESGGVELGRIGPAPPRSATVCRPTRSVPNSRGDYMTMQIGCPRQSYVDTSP
UniProt Q60631: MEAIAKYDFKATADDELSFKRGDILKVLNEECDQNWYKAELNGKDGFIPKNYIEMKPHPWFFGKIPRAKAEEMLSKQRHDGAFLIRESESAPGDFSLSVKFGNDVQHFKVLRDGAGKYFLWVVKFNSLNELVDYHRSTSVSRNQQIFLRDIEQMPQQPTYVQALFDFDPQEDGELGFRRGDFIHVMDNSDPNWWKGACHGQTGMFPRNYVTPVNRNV

Assays:
[1] = molecular target: mIRS-1 301–600 (self-association region, SAR), FLAG-tagged and GFP-tagged copies (mouse) (UniProt P35569); test: co-IP; FLAG-tagged and GFP-tagged constructs co-transfected into 293T cells; lysis in 150 mM NaCl, 50 mM Tris pH 7.3, 0.25 mM EDTA, 1% sodium deoxycholate, 1% Triton X-100; anti-FLAG M2 beads; Western blot; in some panels serum starvation then IGF-1 or insulin (self-association of mIRS-1 enhanced); Supplementary Fig. S4i-k taken as the same format
[2] = molecular target: GFP-mIRS-1 in the C2C12-IRS-1 KO/GFP-mIRS-1 cell line (mouse) (UniProt P35569); test: co-IP; GFP-tagged IRS-1 wildtype or mutants immunoprecipitated from IGF-1-stimulated or control C2C12-IRS-1 KO stable cell lines; Western blot with p85 or Grb2 antibodies
[3] = molecular target: GFP-mIRS-1 ΔSAR in the C2C12-IRS-1 KO/GFP-mIRS-1 ΔSAR cell line (mouse) (UniProt P35569); test: as above
[4] = molecular target: IRS-1 (as used with PTP1B, Supplementary Fig. S3a, b) (not stated (human or mouse cDNA cloned)) (UniProt P35569); test: co-IP; self-association of IRS-1 in the presence of PTP1B wildtype or D181A (Supplementary Fig. S3b); legend not shown
[5] = molecular target: FLAG-tagged mIRS-1 801–1000 (mouse) (UniProt P35569); test: co-IP; FLAG-tagged and GFP-tagged constructs co-transfected into 293T cells; lysis in 150 mM NaCl, 50 mM Tris pH 7.3, 0.25 mM EDTA, 1% sodium deoxycholate, 1% Triton X-100; anti-FLAG M2 beads; Western blot; in some panels serum starvation then IGF-1 or insulin (self-association of mIRS-1 enhanced); Supplementary Fig. S4i-k taken as the same format
[6] = molecular target: FLAG-tagged mIRS-1 801–1000 G965R mutant (mouse) (UniProt P35569); test: as above
[7] = molecular target: mIRS-1 ΔSAR (Δ300-600), FLAG-tagged and GFP-tagged copies (mouse) (UniProt P35569); test: as above
[8] = molecular target: mouse insulin receptor substrate 1 (mIRS-1), FLAG-tagged and GFP-tagged copies (mouse) (UniProt P35569); test: as above
[9] = molecular target: IRS-1 (as used with PTP1B, Supplementary Fig. S3a, b) (not stated (human or mouse cDNA cloned)) (UniProt P35569); test: co-IP; PTP1B wildtype or D181A with IRS-1 (Supplementary Fig. S3a); legend not shown, immunoprecipitation is the only interaction method in the methods

Molecule: IRS-1 (as used with PTP1B, Supplementary Fig. S3a, b) (from UniProt P35569 1-1233)
binding [4]: binds

Molecule: mIRS-1 301–600 (self-association region, SAR), FLAG-tagged and GFP-tagged copies (from UniProt P35569 301-600) (domain or fragment)
binding [5]: binds
binding [6]: binds
binding [1]: binds

B1: PTP1B D181A mutant (enzyme, UniProt P18031 1-435)
chain: MEMEKEFEQIDKSGSWAAIYQDIRHEASDFPCRVAKLPKNKNRNRYRDVSPFDHSRIKLHQEDNDYINASLIKMEEAQRSYILTQGPLPNTCGHFWEMVWEQKSRGVVMLNRVMEKGSLKCAQYWPQKEEKEMIFEDTNLKLTLISEDIKSYYTVRQLELENLTTQETREILHFHYTTWPAFGVPESPASFLNFLFKVRESGSLSPEHGPVVVHCSAGIGRSGTFCLADTCLLLMDKRKDPSSVDIKKVLLEMRKFRMGLIQTADQLRFSYLAVIEGAKFIMGDSSVQDQWKELSHEDLEPPPEHIPPPPRPPKRILEPHNGKCREFFPNHQWVKEETQEDKDCPIKEEKGSPLNAAPYGIESMSQDTEVRSRVVGGSLRGAQAASPAKGEPSLPEKDEDHALSYWKPFLVNMCVATVLTAGAYLCYRFLFNSNT
binding [9]: binds

Results, then the molecule that gave them:

binding [1]: binds
Molecule: GFP-mIRS-1 IDR (301–1233) (from UniProt P35569 301-1233) (domain or fragment)

binding [2]: binds
binding [3]: no binding
Molecule: Grb2 (endogenous) (from UniProt Q60631 1-217)

binding [7]: binds
Molecule: mIRS-1 ΔSAR (Δ300-600), FLAG-tagged and GFP-tagged copies (from UniProt P35569 1-1233)

binding [8]: binds
Molecule: mouse insulin receptor substrate 1 (mIRS-1), FLAG-tagged and GFP-tagged copies (from UniProt P35569 1-1233)
